According to publication PMC5519952:
The exact form of at least one protein or probe is not confirmed. Results from cells or extracts need not show a direct contact.

Sequences of proteins named here, by UniProt entry; tags and fusion partners are left off. Residues count along the entry.
UniProt P16422, 24-314: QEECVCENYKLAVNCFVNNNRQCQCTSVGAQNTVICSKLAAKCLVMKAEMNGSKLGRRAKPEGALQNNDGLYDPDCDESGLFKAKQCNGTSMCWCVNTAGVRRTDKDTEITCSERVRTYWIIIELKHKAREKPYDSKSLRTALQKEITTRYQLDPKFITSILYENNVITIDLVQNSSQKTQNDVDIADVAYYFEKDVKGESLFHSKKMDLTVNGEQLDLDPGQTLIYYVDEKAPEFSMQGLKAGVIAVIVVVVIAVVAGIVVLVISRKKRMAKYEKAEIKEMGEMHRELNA

Columns and labels:
[1] = target: EpCAM (epithelial cell adhesion molecule) (Homo sapiens (MCF-7 breast cancer cells)) (UniProt P16422); experiment: flow cytometry and confocal fluorescence on MCF-7 cells; details: 1 uM aptamer, EpCAM-negative Ramos cells no signal, signal lost after EpCAM siRNA; 30 min, 37 C; wash PBS pH 7.4 (136.7 mM NaCl, 2.7 mM KCl, 8.72 mM Na2HPO4); protein on the cell surface; label: FITC; single-stranded DNA
[2] = target: EpCAM (epithelial cell adhesion molecule) (Homo sapiens (MCF-7 breast cancer cells)) (UniProt P16422); experiment: SERS (Raman) imaging on MCF-7 cells; details: 1 nM Au30 or Au40 probe with Au10 probe, ManNAz-labeled cells, Ramos very weak, signal lost after EpCAM siRNA; 3'-SH; 30 min, 37 C; wash PBS pH 7.4 (136.7 mM NaCl, 2.7 mM KCl, 8.72 mM Na2HPO4); protein on the cell surface; label: gold nanoparticle with PEG; single-stranded DNA

CACTACAGAGGTTGCGTCTGTCCCACGTTGTCATGGGGGGTTGGCCTGAAAAAAAAAAAAAAA [FITC-labeled EpCAM aptamer]
binding result [1]: binds

CACTACAGAGGTTGCGTCTGTCCCACGTTGTCATGGGGGGTTGGCCTGAAAAAAAAAAAAAAA [thiol EpCAM aptamer (AP) on AuNP (Au30/Au40 probe)]
binding result [2]: binds
